Experimental data: PubChem BioAssay AID504784 (Drosophila RNAi Screening Center, 2011)
Purpose: 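Search for regulators of lipid droplet storage in oleate-fed fly cells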 (primary screen). Cell system: Drosophila Kc167 embryonic cells. Reagents: long dsRNA against Drosophila genes, about 250 ng dsRNA per well. Duration: 4 days. Challenge: cells fed 400 µM oleic acid bound to BSA. Detection: 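Microscope images give a droplet-to-nucleus area ratio, taken as log and converted to a screen-wide B-score; higher values mean greater lipid storage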. Direction: droplet/nuclear area B-score: higher = more stored lipid (overstorage).
The deposit covers about 17,000 reagents; shown is an unselected part of those with a known target gene and a result. 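Each column is one replicate's B-score; the combined score over replicates was not deposited, so single values may mislead.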 Names joined by + are all predicted targets of the reagent.

predicted target | dsRNA | droplet/nuclear area B-score, replicate 1 | droplet/nuclear area B-score, replicate 2 | droplet/nuclear area B-score, replicate 3
NimC3 (GeneID 48772) | DRSC03556 | -0.542 | 0.000502 | –
NimC3 (GeneID 48772) | DRSC22528 | -0.687 | -0.0666 | –
CG2641 (GeneID 40921) | DRSC15441 | -1.07 | 0.652 | –
Pink1 (GeneID 31607) | DRSC18361 | 1.14 | 0.152 | 1.01
CG13810 (GeneID 38278) | DRSC08344 | 0.681 | 0.457 | –
CG13810 (GeneID 38278) | DRSC22838 | -0.543 | -0.295 | –
CG32452 (GeneID 318035) | DRSC11581 | 0.112 | 0.934 | –
CG32452 (GeneID 318035) | DRSC22250 | -0.486 | 1.1 | –
spg (GeneID 43404) | DRSC14373 | -2.51 | 2.15 | –
spg (GeneID 43404) | DRSC14881 | 0.455 | -0.673 | –
CG32069 + Blos2 | DRSC10621 | -0.515 | -1.97 | –
blw (GeneID 37617) | DRSC04675 | 3.83 | 2.76 | –
Hr51 (GeneID 36702) | DRSC06627 | -0.216 | 0.0357 | –
Hr51 (GeneID 36702) | DRSC22829 | -2.24 | -1.25 | –
CG16719 (GeneID 39131) | DRSC10222 | -1.17 | -0.213 | –
CG10492 (GeneID 35177) | DRSC02064 | 0.539 | – | –
rgr (GeneID 35843) | DRSC06487 | 1.44 | 3.08 | –
rgr (GeneID 35843) | DRSC07229 | 0.902 | 2.96 | –
CG14933 + CG42486 | DRSC02415 | 1.76 | -1.31 | –
Spn (GeneID 46194) | DRSC07986 | 0.159 | 0.248 | –
Spn (GeneID 46194) | DRSC08490 | – | -1.56 | –
Spn (GeneID 46194) | DRSC08491 | -0.436 | -2.29 | –
Syn1 (GeneID 40424) | DRSC11803 | -0.429 | -0.0726 | –
Syn1 (GeneID 40424) | DRSC11804 | 0.0265 | 0.276 | –
Cpr64Ac (GeneID 38510) | DRSC08462 | -1.21 | -1.66 | –
Phs (GeneID 39697) | DRSC10827 | -1.02 | 0.796 | -1.35
Hmx (GeneID 42110) | DRSC15884 | 0.982 | 1.69 | –
Hmx (GeneID 42110) | DRSC16706 | 0.061 | 1.01 | –
Hmx (GeneID 42110) | DRSC22799 | -0.423 | -1.97 | –

Continued, starting with the last 2 of the part before.
predicted target | dsRNA | droplet/nuclear area B-score, replicate 1 | droplet/nuclear area B-score, replicate 2 | droplet/nuclear area B-score, replicate 3
Hmx (GeneID 42110) | DRSC16706 | 0.061 | 1.01 | –
Hmx (GeneID 42110) | DRSC22799 | -0.423 | -1.97 | –
CG12723 (GeneID 32271) | DRSC19499 | -1.64 | -0.408 | -0.967
CG8060 (GeneID 36824) | DRSC07064 | 0.112 | 0.0322 | –
CG31808 (GeneID 10178782) | DRSC22962 | -0.778 | -0.532 | –
srl (GeneID 40562) | DRSC12340 | -0.435 | -0.482 | –
Dnz1 (GeneID 34503) | DRSC03317 | -0.739 | -0.736 | –
CG42818 + Ca-Ma2d | DRSC01963 | 0.506 | -0.0301 | –
rdgA (GeneID 31826) | DRSC17863 | -0.462 | -0.691 | –
rdgA (GeneID 31826) | DRSC18036 | -0.723 | 0.000189 | –
rdgA (GeneID 31826) | DRSC18827 | -0.614 | -0.0723 | -2.47
CG15408 (GeneID 33548) | DRSC00423 | 0.604 | -1.59 | –
CG7080 (GeneID 42609) | DRSC16193 | 0.606 | 0.964 | –
CG4287 (GeneID 41939) | DRSC15559 | -1.18 | -1.66 | –
CG18508 (GeneID 59253) | DRSC18155 | 0.287 | -1.3 | –
CG6420 (GeneID 43218) | DRSC16035 | -1.42 | -1.08 | –
CG11226 (GeneID 40501) | DRSC11639 | -1.97 | -0.145 | –
vir (GeneID 47869) | DRSC04377 | -0.574 | -1.7 | –
Chpf (GeneID 32259) | DRSC19491 | -0.0686 | -0.25 | -0.879
Chpf (GeneID 32259) | DRSC19893 | 0.0559 | -1.12 | 0.75
CG30127 (retired record) (GeneID 246473) | DRSC05785 | 0.25 | 0.184 | –
CG30127 (retired record) (GeneID 246473) | DRSC05786 | 0.746 | -1.91 | –
bab1 (GeneID 38116) | DRSC08379 | 0.177 | -0.519 | -3.27
bab1 (GeneID 38116) | DRSC08709 | 1.02 | -1.11 | –
bab1 (GeneID 38116) | DRSC21882 | 8.54 | 0.0998 | –
schuy (GeneID 40184) | DRSC10284 | 1.57 | 0.998 | –
CG7166 (GeneID 40401) | DRSC11809 | 1.33 | -0.04 | –
Damm (GeneID 36266) | DRSC07393 | 0.921 | 0.772 | –
Non3 (GeneID 42183) | DRSC16359 | 0.197 | 0.425 | –
